Results reported in patent US20110294721A1, “ANTIMICROBIAL PEPTIDES” (priority 2008, published 2011).
Not every detail of the peptide structures is certain; ends, links or a residue may be inferred. No end group written: not given here.

Tested on: human immundeficiency virus (HIV)
Assay type: cell-based
Details: cells pretreated with 6.3 μg/ml for 30 min at 37° C.; 72 hours incubation; FIG. 6
Method: Cells were pretreated with 6.3 μg/ml SP13-3 and SP13-14 or buffer for 30 min at 37° C. before addition of virus particles. […] Shown is an overlay of pictures taken under transmitted light and fluorescence after 72 hours incubation. The viability of the HeLa cells was determined by measuring the activity of the mitochondrial dehydrogenase.
To measure the activity of the designed oligopeptides against human immundeficiency virus (HIV) a fluorescence-based reporter system was used. HeLa cells (LC5-RIC) harbour a reporter gene, which regulates in dependency of HIV Rev and Tat proteins the synthesis of a red fluorescing protein. In this way the infection of the HeLa cells (LC5-RIC) is indicated and the infection rate can be quantified using a fluorescence microplate reader.
Antimicrobial oligopeptides were dissolved in 0.01% acetic acid containing 0.2% BSA (500 μg/ml), filter sterilized and stored at −20° C. […] (in 5% CO2). Afterwards, virus particles were added to the pre-treated HeLa cells and the infection was quantified by measuring red fluorescence with a fluorescence microplate reader after 72 h incubation. The viability of the HeLa cells was determined by measuring the activity of the mitochondrial dehydrogenase according to Lindl and Bauer (1994) and Mosmann (1983).

Substance	HIV infection of cells (red fluorescence)
KRRKLAFRLFRLFLKLVLKK-NH2 [SP13-14]	markedly reduced
KRRLILRILRLAIRILVKKR-NH2 [SP13-3]	markedly reduced
